No constants are given. Whether binding was seen depends on the method and setting. In cells and extracts the contact can be indirect. Some entries that bind do so weakly or less than the wild type. One block for each molecule: values may come before it.
Legend:
[1] = molecular target: T1, NAT10 (human (endogenous in Jurkat)) (UniProt Q9H0A0); experiment: co-IP; 0.75 to 1.5 ug antibody immobilised on protein G magnetic beads; 125 ug Jurkat nuclear extract added overnight at 4°C in IP100 buffer with 0.05% NP40; washes with IP150 buffer; SDS-PAGE and immunoblotting; no TASHET DNA added
T1 sequence: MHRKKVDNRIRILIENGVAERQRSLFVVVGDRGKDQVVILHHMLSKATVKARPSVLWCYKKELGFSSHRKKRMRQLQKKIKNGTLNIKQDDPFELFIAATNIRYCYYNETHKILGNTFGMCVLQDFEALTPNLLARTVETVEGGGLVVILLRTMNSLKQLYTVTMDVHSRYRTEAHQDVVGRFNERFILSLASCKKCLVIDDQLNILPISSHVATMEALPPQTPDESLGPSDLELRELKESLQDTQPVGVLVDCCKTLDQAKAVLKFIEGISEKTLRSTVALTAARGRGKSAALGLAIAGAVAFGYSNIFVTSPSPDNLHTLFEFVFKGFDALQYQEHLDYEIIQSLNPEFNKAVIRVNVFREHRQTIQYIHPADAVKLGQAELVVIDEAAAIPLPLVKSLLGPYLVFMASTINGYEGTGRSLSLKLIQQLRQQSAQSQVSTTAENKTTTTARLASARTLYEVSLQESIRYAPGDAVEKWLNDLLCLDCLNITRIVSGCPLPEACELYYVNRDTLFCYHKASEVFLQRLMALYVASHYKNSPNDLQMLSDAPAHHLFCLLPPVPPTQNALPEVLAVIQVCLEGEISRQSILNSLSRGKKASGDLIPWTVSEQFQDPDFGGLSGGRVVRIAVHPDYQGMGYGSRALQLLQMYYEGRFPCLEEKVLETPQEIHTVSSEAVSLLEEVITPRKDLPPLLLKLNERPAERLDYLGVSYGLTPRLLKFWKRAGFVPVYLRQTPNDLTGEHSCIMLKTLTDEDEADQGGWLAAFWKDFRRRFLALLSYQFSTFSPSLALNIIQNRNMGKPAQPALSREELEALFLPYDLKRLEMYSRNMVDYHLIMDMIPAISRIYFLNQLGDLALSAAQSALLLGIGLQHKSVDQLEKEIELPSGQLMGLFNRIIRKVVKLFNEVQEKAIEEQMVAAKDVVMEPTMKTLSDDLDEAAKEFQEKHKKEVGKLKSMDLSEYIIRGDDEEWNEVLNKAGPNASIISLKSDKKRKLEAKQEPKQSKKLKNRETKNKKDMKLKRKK

Sequences of proteins named here, by UniProt entry; tags and fusion partners are left off.
UniProt Q13547: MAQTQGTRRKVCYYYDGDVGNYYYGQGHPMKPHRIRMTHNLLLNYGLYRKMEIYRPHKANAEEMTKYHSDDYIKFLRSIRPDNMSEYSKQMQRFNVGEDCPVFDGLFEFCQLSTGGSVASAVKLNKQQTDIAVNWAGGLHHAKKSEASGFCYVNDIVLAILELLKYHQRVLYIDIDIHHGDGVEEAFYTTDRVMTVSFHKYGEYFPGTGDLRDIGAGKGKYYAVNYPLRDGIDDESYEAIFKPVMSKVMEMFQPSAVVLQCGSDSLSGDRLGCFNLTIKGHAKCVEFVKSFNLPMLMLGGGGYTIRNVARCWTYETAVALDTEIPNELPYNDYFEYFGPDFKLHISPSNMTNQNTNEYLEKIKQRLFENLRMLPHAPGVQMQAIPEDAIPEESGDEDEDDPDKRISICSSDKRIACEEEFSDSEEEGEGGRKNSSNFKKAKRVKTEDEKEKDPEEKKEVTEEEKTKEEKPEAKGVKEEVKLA

[2] = molecular target: T2, MIDEAS (human (endogenous in Jurkat)) (UniProt Q6PJG2); experiment: as above
T2 sequence: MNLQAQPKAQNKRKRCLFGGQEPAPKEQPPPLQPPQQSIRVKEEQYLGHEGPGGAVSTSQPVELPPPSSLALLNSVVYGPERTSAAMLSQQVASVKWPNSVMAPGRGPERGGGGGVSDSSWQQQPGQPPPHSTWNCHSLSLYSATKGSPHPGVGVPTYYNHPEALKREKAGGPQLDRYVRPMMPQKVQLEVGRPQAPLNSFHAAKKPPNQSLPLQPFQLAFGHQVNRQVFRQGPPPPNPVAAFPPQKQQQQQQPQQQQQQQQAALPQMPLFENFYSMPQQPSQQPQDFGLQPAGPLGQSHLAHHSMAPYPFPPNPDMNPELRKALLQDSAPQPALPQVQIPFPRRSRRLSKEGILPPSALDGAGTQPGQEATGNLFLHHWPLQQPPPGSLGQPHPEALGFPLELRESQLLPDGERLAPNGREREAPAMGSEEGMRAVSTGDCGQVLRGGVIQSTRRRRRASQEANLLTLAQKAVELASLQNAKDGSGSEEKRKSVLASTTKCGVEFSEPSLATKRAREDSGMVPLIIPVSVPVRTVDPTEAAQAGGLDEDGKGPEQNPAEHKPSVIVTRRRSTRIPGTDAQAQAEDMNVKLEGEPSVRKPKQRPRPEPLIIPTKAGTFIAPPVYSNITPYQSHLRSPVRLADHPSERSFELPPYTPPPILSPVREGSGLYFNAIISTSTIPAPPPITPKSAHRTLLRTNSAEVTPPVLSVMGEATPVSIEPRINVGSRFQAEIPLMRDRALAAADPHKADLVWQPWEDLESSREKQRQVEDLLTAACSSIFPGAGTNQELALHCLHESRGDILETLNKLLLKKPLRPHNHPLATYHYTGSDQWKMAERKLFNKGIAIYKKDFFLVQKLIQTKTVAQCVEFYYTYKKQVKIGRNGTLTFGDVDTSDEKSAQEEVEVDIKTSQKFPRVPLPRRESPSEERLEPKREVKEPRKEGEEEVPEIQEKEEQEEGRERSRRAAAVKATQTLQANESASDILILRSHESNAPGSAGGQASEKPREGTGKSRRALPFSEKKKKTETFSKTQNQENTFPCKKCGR

- binding [1]: binds
- binding [2]: binds
Molecule: HDAC1 (from UniProt Q13547 1-482) (enzyme)

- binding [1]: binds
B1: MIDEAS (protein, UniProt Q6PJG2 1-1045)
chain: T2 sequence

From paper PMC11115230, “Mitotic deacetylase complex (MiDAC) recognizes the HIV-1 core promoter to control activated viral gene expression”
